{"source": "patent US20130164351A1", "about": "(priority 2010, published 2013)", "test_system": "MRSA strains from cystic fibrosis patients", "test": "CLSI microdilution MICs against 40 MRSA strains", "type": "cell-based, Staphylococcus aureus", "design": "unit not given beside the values", "conditions": "all MRSA strains tested", "experimental": "Strains. Two strains each of mucoid Pseudomonas aeruginosa (both pyocyanin positive) and 40 MRSA (only one strain with gold colonies), isolated within the past 12 months and beyond from patients at in cystic fibrosis clinic, were tested. Additionally, two B. cepacia strains were acquired from Hershey Medical Center. All strains were identified by standard methods. Only one strain per patient was tested. MLVA was done on all strains, to examine clonality and to ensure that testing was not being limited to only one or a few clones. Strains were stored in skim milk at −70° C. until use.\nSusceptibility testing. Original MICs of each strain to CEM-102 and other comparators was tested by CLSI microdilution methodology. Trays were obtained from Trek, Inc., Cleveland, Ohio. Time-kill macrobroth MIC dilution by CLSI was performed for all synergy testing.\nMICs were assayed by standard methodology.", "note": "Some results were stated once for a whole list of compounds, not compound by compound.", "data": [{"smiles": "CN[C@H](CC(C)C)C(=O)N[C@H]1C(=O)N[C@@H](CC(N)=O)C(=O)N[C@H]2C(=O)N[C@H]3C(=O)N[C@H](C(=O)N[C@H](C(=O)O)c4cc(O)cc(O)c4-c4cc3ccc4O)[C@H](O)c3ccc(c(Cl)c3)Oc3cc2cc(c3O[C@@H]2O[C@H](CO)[C@@H](O)[C@H](O)[C@H]2O[C@H]2C[C@](C)(N)[C@H](O)[C@H](C)O2)Oc2ccc(cc2Cl)[C@H]1O", "note": "[Vancomycin]", "values": [{"measurement": "MICs (range)", "result": "0.25-1"}]}]}
